Results on 9 molecules are retold here after US12624096B2, “Anti-tau antibodies and methods of use thereof” (GTInvent Limited, priority 2020, dated 2026).

B1: 3aH6: anti-tau clone, SEQ ID NO: 423 (protein)
scFv: QVQLQESGPSLVKPSQTLSLTCTVSGFSLSSNGVGWVRQAPGKVPEWLGDISSVGKKYANPALKSRLSFTRDTSKSQVSLSLSSVTTEDTAVYYCVKCRDGGVTYGYDIDYWGPGLLVTASSEGKSSGASGESKVDDQAVVTQPSSVSGSLGQSVSITCSGSSGNVGYGDYVSWFQQFHGSAPKLLIYGATNLASGVPARFSGSRSGNTATLTISSLHAEDEADYYCASYDSSSGGVFGSGTRLTVLG
modifications: 3aH6 amino acid sequence
B2: 3bD11 (protein)
scFv: RVRLQGSGPSLVKPSQTLSLTCTVSGFSFDSYYVGWVRQAPGKALEWLGNIYSTGRAFYNPALKSRLSITRDTSKSQVSLSVSSVTIEDTALYYCVRGSYYHGGGNGMVDFFDYWSPGLLVTVSSEGKSSGASGESKVDDQVVRTQPSSVSGSLGQRVSITCSGSSSNVGYGNYVGWFQQVPGSAPKLLIYAATSRASGVPDRFSGSRSGNTATLTIDSLQAEDEADYYCSSYQRGNTGVFGSGTRLTVLG
B3: MD9/MoD9: anti-tau clone, SEQ ID NO: 373 (protein)
scFv: QVRLQESGPSLVKSSQTLSLTCTVSGFSLTRESIAWVRQAPGKVPEWLGGVGIDGTSYYSPALKSRLSITRDTSKSQASLSLSSVATEDTAMYYCARNYIDFEYWGPGLLVTVSSEGKSSGASGESKVDDQAVLTQLSSVSGSLGQRISITCSGSSSNVGIYDVSWFQQLPGSGLRTVIYGTNNRPSGVPDRFSGSRSGNTATLTISSLQSEDEAIYYCAAGDSSTIAVFGSGTRLTVLG
modifications: MD9 amino acid sequence
B4: 3bG4: anti-tau clone, SEQ ID NO: 425 (protein)
scFv: QVQLQESGPSLVKPSQTLSLTCTISGFSLISNGVGWVRQAPGKVPEWVGDIASSGKAYSNPALKSRLSITRDTSKSQVSLSLRSVTTEDTAVYYCVRCRDGGVTYGYDIDYWGPGLLVTVSSEGKSSGASGESKVDDQAVLTQPSSVSKSLGQSVSITCSGSTSNVGSGNDVSWFQQVPGSAPKLLFYGATNRASGVPDRFSGSRSGNTATLTITSLQAEDEADYYCGSYDSNSGGIFGSGTRLTVLG
modifications: 3bG4 amino acid sequence
B5: CE2: anti-tau clone referred to as CE2 or E1B8, SEQ ID NO: 366 (protein)
scFv: QVQLQESGPSLVKPSQTLSLTCTVSGFSLTNYPVGWVRQAPGKALEWIGNIENDGSANYASALKSRLSITRDTSKNQVSLSLSSATTEDTAVYYCGREFGGSDGYTYFVDIDYWGPGLLVTVSSEGKSSGASGESKVDDQAVLTQPSSVSKSLGQSVSITCSGSSSNVGYGNYVSWFQQVPGSAPKILIYGATSRASGVPDRFSGSRSGNTATLTITSLQAEDEADYYCASYDGSSSGVFGSGTRLTVLG
modifications: CE2/E1B8 amino acid sequence
B6: 3aG3: anti-tau clone, SEQ ID NO: 424 (protein)
scFv: QVQLQESGPSLVKPSQTLSLTCTVSGFSLSSNGVGWVRQAPGKVPEWVGDISSSGKAYANPALKSRLSITRDTAKTQVFLSLSSVTTEDTAVYYCVRCRDGGVSYGYDIDYWGPGLLVTVSSEGKSSGASGESKVDDQAVLTQPPSVSGSPGQRVSITCSGSSSNIGGGNYLSWFQQVPGSAPKLLIYGATSRASGVPDRFSGSRSGNTATLTISSLQAEDEADYYCASFDTSSGGIFGAGTRLTVLG
modifications: 3aG3 amino acid sequence
B7: S1G2: anti-tau clone, SEQ ID NO: 81 (protein)
scFv: QVQLQESGPSLVKPSQTLSLTCTVSGFSLTSNSVGWVRQAPGKAPEWVAGIDTDGEEGYNPALNSRLSITRDTSKSQVSLSLSSVTSEDTAVYYCGRSYRADGLAYGYVQAIDYWGPGLLVTVSSEGKSSGASGESKVDDQAVVTQPSSVSGSLGQRVSITCSGSFIGISSVGWFQQLPGSGLRTIIVASDGRPSGVPDRFSMSKSGNTATLTISSLQAEDEADYFCGSSDRTPYTGVFGSGTRLTVLG
modifications: S1G2 amino acid sequence
B8: CB7: anti-tau clone, SEQ ID NO: 364 (protein)
scFv: QVQLQESGPSLVKPSQTLSLTCTVSGFSLTNYRVGWVRQAPGKALEWVSNIRSGGTTWYNPALKSRLSITADTSKSQVSLSLSSVTTEDTAVYYCARDSSGDLYAYDYWGPGLLVTVSSEGKSSGASGESKVDDQAVLTQPSSVSRSLGQSVSMTCSGSSSNVGYGNYMAWFQQVPGSAPKLLIYGATSRASGVPDRFSGSRSGNTATLTISSLQAEDEADYYCASYDSTSGGVFGSGTRLTVLG
modifications: CB7 amino acid sequence
B9: S1D12: anti-tau clone from immunised sheep, SEQ ID NO: 32 (protein)
scFv: QVQLQESGPSLVKPSQTLSLTCTVSGFSLNNNAVGWVRQAPGKVPESLVGCSSDGTCYYNSALKSRLDITRDTSKNQISLSLSSVTTDDAAVYYCTRGHYSIYGYDYLGTIDYWGPGLLVTVSSEGKSSGASGESKVDDQAVLTQPSSVSGSLGQRVSITCSGSSSNVGGGNSVGWYQHLPGSGLKTIIYDTNSRPSGVPDRFSGSRSGNTATLTINSLQAEDEGDYYCVTGDSTTHDDLVGSGTRLTVLG
modifications: S1D12 amino acid sequence

One series concerns hT40, dGA, dGAE and truncated tau fragments/peptides. The series can be described thus: Binding ELISA for epitope mapping with truncated tau proteins and biotinylated 13mer peptides. Also on record: species or system human. Conditions: mAbs, Table 25 (Example 28). Here is the method: A series of binding ELISA was performed using various truncated versions of the tau protein and 13mer peptide libraries spanning the entire hT40 molecule for mapping the epitopes of anti-tau scAbs (Full list of protein antigens used is given in Table 14). In general, ELISA plates were coated with 1 μg/ml hT40 or dGA or dGAE or other truncated versions of the protein and in the case of biotinylated peptides, plates were coated with 5 μg/ml Streptavidin followed by 1 μg/ml biotinylated peptide. The plates were blocked with 2% MPBS and scAb samples added at desired starting concentrations and double diluted across the plate. Binding was detected using anti-Human C Kappa HRP conjugated secondary antibody and the resulting immunoreaction was developed and absorbance values measured as described above.
Similarly, dGA binding ‘NS’, ‘S’ and ‘M’ group scAbs were subjected to further antigen binding ELISA using shorter tau proteins and biotinylated 13mer peptides as shown below (FIGS. 10A-F) and (FIGS. 11A-R).
For anti-tau mAb SPR measurements (Biacore X100™) and epitope mapping, the same methodologies described above (see Example 16) were followed.
In general terms: In an ELISA, binding on a coated surface is turned into a signal by an enzyme label.
For the molecule B1, the hT40 binding region was 1-15. Still for that read-out and setting: as for B2, the figure is 37-49; as for B3, 373-385. On the same count and under the same terms, in the case of B4 it was 1-15; in that of B5, 319-331. The same measure, in the same setting: as for B6, the figure is 1-15.

Staying with this series, now noted: own antibodies, as noted in Simoa Table 26.
As for B7, the “Binding region hT40” value was “(Binding region hT40 367-379)”. On the same count and under the same terms, as for B4, the entry is “(Binding region hT40 1-15)”. B8: the “Binding region hT40” value was “(Binding region hT40 13-25)”. Same read-out and setting: as for B9, the entry is “(Binding region hT40 337-355)”.
